Data reported in paper PMC9935901, “B-lymphoid tyrosine kinase-mediated FAM83A phosphorylation elevates pancreatic tumorigenesis through interacting with β-catenin” (Signal Transduction and Targeted Therapy, 2023).
No constants are given. Whether binding was seen depends on the method and setting. Binding seen in cells or lysates may run through a third protein. Some entries that bind do so weakly or less than the wild type. For some of these results: Sequences can lack the tags named with a protein.

By UniProt entry, the sequences of proteins in these tests, tags left out. Where a name states a change or a piece, a line headed by the entry shows the natural chain unless it says otherwise. Residues count along the entry.
UniProt O15169: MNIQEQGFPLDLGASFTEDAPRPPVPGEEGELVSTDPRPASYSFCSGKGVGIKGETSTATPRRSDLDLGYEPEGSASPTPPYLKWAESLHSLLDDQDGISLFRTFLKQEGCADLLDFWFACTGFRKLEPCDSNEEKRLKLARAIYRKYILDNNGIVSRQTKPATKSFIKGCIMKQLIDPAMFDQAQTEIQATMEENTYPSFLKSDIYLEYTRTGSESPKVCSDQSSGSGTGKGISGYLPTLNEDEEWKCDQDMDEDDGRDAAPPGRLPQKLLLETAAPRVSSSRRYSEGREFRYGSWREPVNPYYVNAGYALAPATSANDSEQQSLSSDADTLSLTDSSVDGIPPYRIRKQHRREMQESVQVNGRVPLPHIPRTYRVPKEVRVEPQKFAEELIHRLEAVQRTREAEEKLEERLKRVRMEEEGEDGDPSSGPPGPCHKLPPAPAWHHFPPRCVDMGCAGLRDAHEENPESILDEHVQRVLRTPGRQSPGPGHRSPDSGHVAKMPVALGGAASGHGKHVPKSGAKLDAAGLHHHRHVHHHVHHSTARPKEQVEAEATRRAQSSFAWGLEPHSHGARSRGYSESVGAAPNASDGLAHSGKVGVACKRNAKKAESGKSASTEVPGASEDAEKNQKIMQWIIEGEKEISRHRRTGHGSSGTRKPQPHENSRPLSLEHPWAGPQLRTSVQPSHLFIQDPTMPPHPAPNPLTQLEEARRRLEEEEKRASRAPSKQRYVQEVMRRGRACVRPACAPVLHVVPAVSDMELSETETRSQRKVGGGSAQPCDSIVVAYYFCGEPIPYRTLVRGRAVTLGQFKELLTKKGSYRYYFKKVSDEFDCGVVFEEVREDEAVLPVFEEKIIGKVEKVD
UniProt P49841: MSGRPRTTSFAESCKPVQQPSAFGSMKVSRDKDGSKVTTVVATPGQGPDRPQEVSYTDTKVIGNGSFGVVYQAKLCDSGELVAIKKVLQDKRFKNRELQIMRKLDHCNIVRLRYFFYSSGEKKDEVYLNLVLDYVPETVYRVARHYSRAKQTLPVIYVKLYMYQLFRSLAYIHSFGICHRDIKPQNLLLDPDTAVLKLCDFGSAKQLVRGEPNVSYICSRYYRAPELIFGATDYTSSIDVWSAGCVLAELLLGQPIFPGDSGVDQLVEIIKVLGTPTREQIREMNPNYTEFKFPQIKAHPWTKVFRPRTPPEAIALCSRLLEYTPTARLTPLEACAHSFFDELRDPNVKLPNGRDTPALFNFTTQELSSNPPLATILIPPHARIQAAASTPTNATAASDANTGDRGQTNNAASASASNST
kinase domain of GSK3β: residues 56-340 of P49841
UniProt P35222: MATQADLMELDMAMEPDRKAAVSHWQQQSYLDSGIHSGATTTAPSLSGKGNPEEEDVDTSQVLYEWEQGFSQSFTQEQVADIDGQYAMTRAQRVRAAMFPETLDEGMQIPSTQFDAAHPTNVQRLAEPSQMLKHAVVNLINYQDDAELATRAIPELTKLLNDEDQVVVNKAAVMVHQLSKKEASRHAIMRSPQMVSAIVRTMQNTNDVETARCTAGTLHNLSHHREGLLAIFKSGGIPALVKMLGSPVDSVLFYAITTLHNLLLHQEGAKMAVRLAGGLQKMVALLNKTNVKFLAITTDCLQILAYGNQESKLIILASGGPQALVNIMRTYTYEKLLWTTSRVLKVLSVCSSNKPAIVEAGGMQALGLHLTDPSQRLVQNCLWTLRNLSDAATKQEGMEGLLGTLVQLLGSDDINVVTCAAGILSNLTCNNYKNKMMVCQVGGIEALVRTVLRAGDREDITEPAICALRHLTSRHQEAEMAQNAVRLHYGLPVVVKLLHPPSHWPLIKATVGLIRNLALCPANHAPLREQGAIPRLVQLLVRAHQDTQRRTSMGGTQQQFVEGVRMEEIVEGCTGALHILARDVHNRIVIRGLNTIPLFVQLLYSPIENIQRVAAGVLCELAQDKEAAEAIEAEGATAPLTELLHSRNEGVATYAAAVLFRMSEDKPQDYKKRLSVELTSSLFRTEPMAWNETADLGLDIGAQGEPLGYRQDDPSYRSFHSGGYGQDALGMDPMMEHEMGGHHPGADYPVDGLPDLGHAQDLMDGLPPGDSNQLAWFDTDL
UniProt Q9NQB0: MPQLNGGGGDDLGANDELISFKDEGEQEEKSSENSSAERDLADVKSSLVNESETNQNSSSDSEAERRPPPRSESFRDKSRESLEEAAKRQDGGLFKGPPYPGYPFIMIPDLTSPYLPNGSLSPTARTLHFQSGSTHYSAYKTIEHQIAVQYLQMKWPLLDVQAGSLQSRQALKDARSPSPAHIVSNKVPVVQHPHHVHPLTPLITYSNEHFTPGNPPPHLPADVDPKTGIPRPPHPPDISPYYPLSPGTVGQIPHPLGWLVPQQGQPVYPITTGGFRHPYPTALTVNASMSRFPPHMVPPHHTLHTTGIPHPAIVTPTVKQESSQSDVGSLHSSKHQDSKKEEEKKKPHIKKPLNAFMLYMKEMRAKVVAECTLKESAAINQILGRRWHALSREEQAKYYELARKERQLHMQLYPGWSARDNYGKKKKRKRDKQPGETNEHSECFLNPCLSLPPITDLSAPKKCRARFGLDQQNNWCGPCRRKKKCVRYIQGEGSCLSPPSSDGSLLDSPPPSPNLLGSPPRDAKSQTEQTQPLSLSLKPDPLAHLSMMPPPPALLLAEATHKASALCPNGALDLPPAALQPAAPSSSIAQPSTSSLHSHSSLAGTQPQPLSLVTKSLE

What was measured:
[1] = target: endogenous AXIN1 (human (endogenous in PANC-1 and HEK293T)) (UniProt O15169); assay: co-IP; endogenous proteins in PANC-1 cell lysates, western blotting; with or without FAM83A knockdown, Flag-FAM83A overexpression or peptide treatment
[2] = target: endogenous GSK3β (human (endogenous in PANC-1 and HEK293T)) (UniProt P49841); assay: as above
[3] = target: endogenous β-catenin (human (endogenous in PANC-1 and HEK293T)) (UniProt P35222); assay: as above
[4] = target: GSK3β (exogenous, construct not stated) (UniProt P49841); assay: co-IP; supplementary panels (Fig. S1b–e, S4c); exogenous co-IP; cells and tags not shown
[5] = target: TCF4 (construct not stated) (UniProt Q9NQB0); assay: as above
[6] = target: kinase domain of GSK3β (UniProt P49841); assay: as above
[7] = target: HA-tagged β-catenin (UniProt P35222); assay: co-IP; HEK293T cells transfected for 48 h, IP and western blotting; with or without BLK, FAM83A wild type, Y138A or Y138D, saracatinib

B1: endogenous FAM83A (protein, UniProt Q86UY5 1-434)
chain: MSRSRHLGKIRKRLEDVKSQWVRPARADFSDNESARLATDALLDGGSEAYWRVLSQEGEVDFLSSVEAQYIQAQAREPPCPPDTLGGAEAGPKGLDSSSLQSGTYFPVASEGSEPALLHSWASAEKPYLKEKSSATVYFQTVKHNNIRDLVRRCITRTSQVLVILMDVFTDVEIFCDILEAANKRGVFVCVLLDQGGVKLFQEMCDKVQISDSHLKNISIRSVEGEIYCAKSGRKFAGQIREKFIISDWRFVLSGSYSFTWLCGHVHRNILSKFTGQAVELFDEEFRHLYASSKPVMGLKSPRLVAPVPPGAAPANGRLSSSSGSASDRTSSNPFSGRSAGSHPGTRSVSASSGPCSPAAPHPPPPPRFQPHQGPWGAPSPQAHLSPRPHDGPPAAVYSNLGAYRPTRLQLEQLGLVPRLTPTWRPFLQASPHF
B1 was tested, and the binding [1] was “binds”, the binding [2] was “binds” and the binding [3] was “binds”.

B2: FAM83A (construct not stated) (protein, UniProt Q86UY5 1-434)
chain: MSRSRHLGKIRKRLEDVKSQWVRPARADFSDNESARLATDALLDGGSEAYWRVLSQEGEVDFLSSVEAQYIQAQAREPPCPPDTLGGAEAGPKGLDSSSLQSGTYFPVASEGSEPALLHSWASAEKPYLKEKSSATVYFQTVKHNNIRDLVRRCITRTSQVLVILMDVFTDVEIFCDILEAANKRGVFVCVLLDQGGVKLFQEMCDKVQISDSHLKNISIRSVEGEIYCAKSGRKFAGQIREKFIISDWRFVLSGSYSFTWLCGHVHRNILSKFTGQAVELFDEEFRHLYASSKPVMGLKSPRLVAPVPPGAAPANGRLSSSSGSASDRTSSNPFSGRSAGSHPGTRSVSASSGPCSPAAPHPPPPPRFQPHQGPWGAPSPQAHLSPRPHDGPPAAVYSNLGAYRPTRLQLEQLGLVPRLTPTWRPFLQASPHF
In the case of B2, the binding [4] is reported as “binds”, the binding [5] is reported as “binds” and the binding [6] is reported as “binds”.

B3: Flag-tagged FAM83A (protein, UniProt Q86UY5 1-434)
chain: MSRSRHLGKIRKRLEDVKSQWVRPARADFSDNESARLATDALLDGGSEAYWRVLSQEGEVDFLSSVEAQYIQAQAREPPCPPDTLGGAEAGPKGLDSSSLQSGTYFPVASEGSEPALLHSWASAEKPYLKEKSSATVYFQTVKHNNIRDLVRRCITRTSQVLVILMDVFTDVEIFCDILEAANKRGVFVCVLLDQGGVKLFQEMCDKVQISDSHLKNISIRSVEGEIYCAKSGRKFAGQIREKFIISDWRFVLSGSYSFTWLCGHVHRNILSKFTGQAVELFDEEFRHLYASSKPVMGLKSPRLVAPVPPGAAPANGRLSSSSGSASDRTSSNPFSGRSAGSHPGTRSVSASSGPCSPAAPHPPPPPRFQPHQGPWGAPSPQAHLSPRPHDGPPAAVYSNLGAYRPTRLQLEQLGLVPRLTPTWRPFLQASPHF
B3 was tested, and the binding [7] was “binds”.
